Results taken from paper PMC8840131.
Results are given in words; binding and its absence hold for the method and conditions named. A result given as binding can be weak or reduced; the word gives no strength.

Biological target: Platycodon grandiflorus FLOWERING LOCUS T (PlgFT) (Platycodon grandiflorus)
Experiment: two-hybrid; Matchmaker GAL4 Two-hybrid System 3, yeast AH109; PlgFT as bait (pGBKT7), AtFD as prey (pGADT7); growth on SD medium without Leu, Trp and His; empty vectors as negative controls

B1: Arabidopsis FLOWERING LOCUS D (AtFD) (protein, UniProt Q84JK2 1-285)
chain: MLSSAKHQRNHRLSATNKNQTLTKVSSISSSSPSSSSSSSSTSSSSPLPSQDSQAQKRSLVTMEEVWNDINLASIHHLNRHSPHPQHNHEPRFRGQNHHNQNPNSIFQDFLKGSLNQEPAPTSQTTGSAPNGDSTTVTVLYSSPFPPPATVLSLNSGAGFEFLDNQDPLVTSNSNLHTHHHLSNAHAFNTSFEALVPSSSFGKKRGQDSNEGSGNRRHKRMIKNRESAARSRARKQAYTNELELEVAHLQAENARLKRQQDQLKMAAAIQQPKKNTLQRSSTAPF
Question: Which binding does the source give for B1 here?
Answer: binds
